Assay: Equilibrium solubility in EPO-solutions, 96-well SORESOS assay
Conditions: 48 h, room temperature
Procedure: Polymer solutions were prepared by dissolving EPO (0.1%, 0.5%, 1%, 2%, 3%, 4%, 5% (w/w)) in deionized water and adjusting all solutions to pH 6.0 by hydrochloric acid and sodium hydroxide at 25° C. Solutions were checked carefully for absence of particles.
(§1) Solubility of compounds in EPO-solutions was determined by using a 96-well assay that was introduced to measure equilibrium solubility in parallel to a solid state analysis of the residual solid (SORESOS)^21 as described before.^22 In brief, APIs were dispensed using the powder-picking-method^23 in a 96-well flat bottom plate (Corning Inc., Durham, USA). Mixtures were agitated by head-over-head rotation for 48 h at room temperature after addition of stir bars and polymer solutions (150 μl). […] Samples were analyzed directly in the 96-well filter plate with an exposure time of 5 min per well.
as §1, with “USA).” for “USA). Mixtures were agitated by head-over-head rotation for 48 h at room temperature after addition of stir bars and polymer solutions (150 μl).”

EPO concentration at which solubility reached a plateau: 2 % EPO (w/w)
SMILES: C(=C\c1ccccc1)/CN1CCN(C(c2ccccc2)c2ccccc2)CC1 [CNZ, Cinnarizine]

— patent US11491109B2, “Pharmaceutical compositions for basic or neutral, low molecular weight compounds” (Hoffmann-La Roche Inc., priority 2017, dated 2022)
